Publication PMC11320359

By UniProt entry, the sequences of proteins in these tests, tags left out. Where a name states a change or a piece, a line headed by the entry shows the natural chain unless it says otherwise.
UniProt Q8K4Z2: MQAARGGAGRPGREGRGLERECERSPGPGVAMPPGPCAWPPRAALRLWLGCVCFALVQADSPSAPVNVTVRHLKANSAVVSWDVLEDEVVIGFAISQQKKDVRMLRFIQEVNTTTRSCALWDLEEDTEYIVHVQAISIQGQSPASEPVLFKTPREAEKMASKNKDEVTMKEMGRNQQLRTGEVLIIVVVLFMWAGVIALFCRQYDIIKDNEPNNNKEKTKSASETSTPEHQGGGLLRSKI
UniProt P49817: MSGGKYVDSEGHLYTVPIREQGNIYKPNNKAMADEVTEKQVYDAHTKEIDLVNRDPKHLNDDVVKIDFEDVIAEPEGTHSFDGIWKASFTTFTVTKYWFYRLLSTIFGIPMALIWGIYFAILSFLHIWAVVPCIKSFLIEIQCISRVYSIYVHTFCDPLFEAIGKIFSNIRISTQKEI

Target: GST-irisin recombinant protein (UniProt Q8K4Z2)
Test: affinity purification with mass spectrometry; GST-irisin held on GST magnetic beads; target protein added, 30 min at room temperature; binding buffer 140 mM NaCl, 2.7 mM KCl, 10 mM Na2HPO4, 1.8 mM KH2PO4, pH 7.4; eluted with 10 mM reduced glutathione; band cut out and analysed by mass spectrometry; only the target purified

binding: binds
Substance: Caveolin 1 (prey of the GST-irisin pull-down) (from UniProt P49817 1-178)

Results are given in words; binding and its absence hold for the method and conditions named. In cells and extracts the contact can be indirect. Here binding means that the protein was enriched with, or labelled near, the bait; the list need not be complete.
